Record: PubChem BioAssay AID1159600 (NIAID, 2016)
Here is an unselected part of 756 deposited reagents. Of all reagents, 134 (18%) were called active. 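Active includes both reduced and increased reporter signal, though most active siRNAs reduce it; R848 dose unknown.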 A number with no mark means an inactive call. The numbers tell different reagents against one gene apart. The record does not give: the amount of reagent.

Assay: 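Effect of silencing core TLR signalling genes on R848-induced TNF reporter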 (primary screen)
System: human THP-1 TNF reporter clone B5, made macrophage-like with PMA
Reagents: single siRNA against human genes
Duration: 4 h ligand stimulation, assayed 48 to 72 h after siRNA transfection
Conditions: R848 (TLR7/8 agonist) for 4 hours before lysis; dose not given
Read-out: 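TNF promoter firefly to renilla luciferase ratio after 4 h R848, scaled per plate by median and MAD, robust z-score against negative controls, mean of replicates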
Direction: TNF reporter z-score: higher = stronger TNF promoter reporter signal after R848
Active means: 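siRNAs graded by distance of mean z-score from zero in steps of 1, 1.5, 2 and 2.5; active calls sit at roughly -1.5 or below, or 1.5 or above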
Meaning of the calls: active = strong change in TNF reporter (up or down); inactive = little change

gene knocked down | reagent | TNF reporter z-score
TIRAP (TIR domain containing adaptor protein) | 1 | -0.586
TIRAP (TIR domain containing adaptor protein) | 2 | 0.46
TIRAP (TIR domain containing adaptor protein) | 3 | -0.76
TIRAP (TIR domain containing adaptor protein) | 4 | -0.296
TIRAP (TIR domain containing adaptor protein) | 5 | 0.178
TIRAP (TIR domain containing adaptor protein) | 6 | -1.06
TLR6 (toll like receptor 6) | 1 | -0.923
TLR6 (toll like receptor 6) | 2 | 0.473
TLR6 (toll like receptor 6) | 3 | 0.823
TLR6 (toll like receptor 6) | 4 | 0.405
TLR6 (toll like receptor 6) | 5 | -0.127
TLR6 (toll like receptor 6) | 6 | -0.51
IRAK1 (interleukin 1 receptor associated kinase 1) | 1 | -1.1
IRAK1 (interleukin 1 receptor associated kinase 1) | 2 | -2.82 (active)
IRAK1 (interleukin 1 receptor associated kinase 1) | 3 | -3.37 (active)
IRAK1 (interleukin 1 receptor associated kinase 1) | 4 | -1.15
IRAK1 (interleukin 1 receptor associated kinase 1) | 5 | -2.16 (active)
IRAK1 (interleukin 1 receptor associated kinase 1) | 6 | -2.67 (active)
MAPK1 (mitogen-activated protein kinase 1) | 1 | -0.231
MAPK1 (mitogen-activated protein kinase 1) | 2 | -0.529
MAPK1 (mitogen-activated protein kinase 1) | 3 | 1.4
MAPK1 (mitogen-activated protein kinase 1) | 4 | 0.242
MAPK1 (mitogen-activated protein kinase 1) | 5 | -0.643
MAPK1 (mitogen-activated protein kinase 1) | 6 | -0.256
TICAM2 (TIR domain containing adaptor molecule 2) | 1 | -0.0164
TICAM2 (TIR domain containing adaptor molecule 2) | 2 | -0.734
TICAM2 (TIR domain containing adaptor molecule 2) | 3 | 1.21
TICAM2 (TIR domain containing adaptor molecule 2) | 4 | 1.26
TICAM2 (TIR domain containing adaptor molecule 2) | 5 | -1.05
TICAM2 (TIR domain containing adaptor molecule 2) | 6 | -0.79
PIK3R3 (phosphoinositide-3-kinase regulatory subunit 3) | 1 | -1
PIK3R3 (phosphoinositide-3-kinase regulatory subunit 3) | 2 | -0.888
PIK3R3 (phosphoinositide-3-kinase regulatory subunit 3) | 3 | 0.647
PIK3R3 (phosphoinositide-3-kinase regulatory subunit 3) | 4 | -1.11
PIK3R3 (phosphoinositide-3-kinase regulatory subunit 3) | 5 | 0.309
PIK3R3 (phosphoinositide-3-kinase regulatory subunit 3) | 6 | -2.03 (active)
RELA (RELA proto-oncogene, NF-kB subunit) | 1 | -0.178
RELA (RELA proto-oncogene, NF-kB subunit) | 2 | -0.642
RELA (RELA proto-oncogene, NF-kB subunit) | 3 | -0.566
RELA (RELA proto-oncogene, NF-kB subunit) | 4 | -1.33
RELA (RELA proto-oncogene, NF-kB subunit) | 5 | 0.284
RELA (RELA proto-oncogene, NF-kB subunit) | 6 | -1.24
MAPK14 (mitogen-activated protein kinase 14) | 1 | -0.112
MAPK14 (mitogen-activated protein kinase 14) | 2 | -1.96 (active)
MAPK14 (mitogen-activated protein kinase 14) | 3 | -1.13
MAPK14 (mitogen-activated protein kinase 14) | 4 | -1.22
MAPK14 (mitogen-activated protein kinase 14) | 5 | -0.192
MAPK14 (mitogen-activated protein kinase 14) | 6 | -1.09
IKBKB (inhibitor of nuclear factor kappa B kinase subunit beta) | 1 | -0.693
IKBKB (inhibitor of nuclear factor kappa B kinase subunit beta) | 2 | 1.07
IKBKB (inhibitor of nuclear factor kappa B kinase subunit beta) | 3 | -0.841
IKBKB (inhibitor of nuclear factor kappa B kinase subunit beta) | 4 | -0.626
IKBKB (inhibitor of nuclear factor kappa B kinase subunit beta) | 5 | -0.188
IKBKB (inhibitor of nuclear factor kappa B kinase subunit beta) | 6 | -0.653
IL12A (interleukin 12A) | 1 | -0.0847
IL12A (interleukin 12A) | 2 | -0.17
IL12A (interleukin 12A) | 3 | -2.98 (active)
IL12A (interleukin 12A) | 4 | -0.477
IL12A (interleukin 12A) | 5 | -1.06
IL12A (interleukin 12A) | 6 | -0.51
ELK4 (ETS transcription factor ELK4) | 1 | -0.216
ELK4 (ETS transcription factor ELK4) | 2 | -1.65 (active)
ELK4 (ETS transcription factor ELK4) | 3 | -0.856
ELK4 (ETS transcription factor ELK4) | 4 | -0.103
ELK4 (ETS transcription factor ELK4) | 5 | -0.927
ELK4 (ETS transcription factor ELK4) | 6 | 0.154
RIPK1 (receptor interacting serine/threonine kinase 1) | 1 | -0.972
RIPK1 (receptor interacting serine/threonine kinase 1) | 2 | 0.0756
RIPK1 (receptor interacting serine/threonine kinase 1) | 3 | 0.534
RIPK1 (receptor interacting serine/threonine kinase 1) | 4 | -0.979
RIPK1 (receptor interacting serine/threonine kinase 1) | 5 | -0.694
RIPK1 (receptor interacting serine/threonine kinase 1) | 6 | -1.13
TAB2 (TGF-beta activated kinase 1 (MAP3K7) binding protein 2) | 1 | 2.21 (active)
TAB2 (TGF-beta activated kinase 1 (MAP3K7) binding protein 2) | 2 | -1.16
TAB2 (TGF-beta activated kinase 1 (MAP3K7) binding protein 2) | 3 | -1.99 (active)
TAB2 (TGF-beta activated kinase 1 (MAP3K7) binding protein 2) | 4 | -2.08 (active)
TAB2 (TGF-beta activated kinase 1 (MAP3K7) binding protein 2) | 5 | -2.9 (active)
TAB2 (TGF-beta activated kinase 1 (MAP3K7) binding protein 2) | 6 | -1.99 (active)
ATF7 (activating transcription factor 7) | 1 | -2.49 (active)
ATF7 (activating transcription factor 7) | 2 | -0.187
ATF7 (activating transcription factor 7) | 3 | -2.39 (active)
ATF7 (activating transcription factor 7) | 4 | -1.46
ATF7 (activating transcription factor 7) | 5 | -0.297
ATF7 (activating transcription factor 7) | 6 | -1.19
TLR1 (toll like receptor 1) | 1 | 2.21 (active)
TLR1 (toll like receptor 1) | 2 | -0.279
TLR1 (toll like receptor 1) | 3 | -2.95 (active)
TLR1 (toll like receptor 1) | 4 | 1.47
TLR1 (toll like receptor 1) | 5 | -0.396
TLR1 (toll like receptor 1) | 6 | -0.435
TRAF6 (TNF receptor associated factor 6) | 1 | -3.02 (active)
TRAF6 (TNF receptor associated factor 6) | 2 | -3.45 (active)
TRAF6 (TNF receptor associated factor 6) | 3 | -2.06 (active)
TRAF6 (TNF receptor associated factor 6) | 4 | -1.92 (active)
TRAF6 (TNF receptor associated factor 6) | 5 | -0.729
TRAF6 (TNF receptor associated factor 6) | 6 | -1.58 (active)
IRF7 (interferon regulatory factor 7) | 1 | 0.164
IRF7 (interferon regulatory factor 7) | 2 | -1.33
IRF7 (interferon regulatory factor 7) | 3 | -0.531
IRF7 (interferon regulatory factor 7) | 4 | -1.58 (active)
IRF7 (interferon regulatory factor 7) | 5 | -1.28
IRF7 (interferon regulatory factor 7) | 6 | -1.39
PIK3CB | 1 | -1.07
PIK3CB | 2 | -0.474
PIK3CB | 3 | -0.44
PIK3CB | 4 | -0.014
PIK3CB | 5 | 1.59 (active)
PIK3CB | 6 | 0.161
IKBKG | 1 | -2.49 (active)
IKBKG | 2 | -0.145
IKBKG | 3 | -0.311
IKBKG | 4 | -1.13
IKBKG | 5 | 2.17 (active)
IKBKG | 6 | 0.0946

As entered above:
RELA (RELA proto-oncogene, NF-kB subunit) #6, TNF reporter z-score: -1.24
PIK3CB #6, TNF reporter z-score = 0.161
IRF7 (interferon regulatory factor 7) #1, TNF reporter z-score → 0.164
For “TNF reporter z-score”, RELA (RELA proto-oncogene, NF-kB subunit) #2 has -0.642
Under “TNF reporter z-score”, TLR6 (toll like receptor 6) #4 is entered as 0.405
For “TNF reporter z-score”, TIRAP (TIR domain containing adaptor protein) #3 shows -0.76
